Source: patent US9290516B2, “Benzobis(thiadiazole) derivative and organic electronics device comprising same” (Ube Industries, Ltd., priority 2012, dated 2016)
Some entries repeat one wording, which the source may state once for all of them.

Experiments:
[1] = Thin Film Formation Experiment using Coating Method; conditions: 0.2-μm filtered, dropped onto silicon wafer, solvent volatilized
[2] = Organic TFT on PS substrate, vacuum-deposited semiconductor layer; conditions: vacuum deposition; for electrical properties of the organic TFT (n-type): drain voltage 50 to 100 V as in each example
[3] = Organic TFT on HMDS-modified substrate, vacuum-deposited semiconductor layer; conditions: for electrical properties of the organic TFT (n-type): drain voltage 50 to 100 V as in each example
[4] = Organic TFT on PS substrate, spin-coated semiconductor layer; conditions: drain voltage 100 V; for field-effect mobility: spin-coating from 0.3 wt % 1,2-dichlorobenzene solution, heated 180° C. 35 minutes; for electrical properties of the organic TFT (n-type): spin-coating
[5] = drain voltage 50 V, left in the atmosphere 13 days
[6] = drain voltage 80 V, 28 days in total in the atmosphere
[7] = drain voltage 80 V, 56 days in total in the atmosphere
[8] = drain voltage 80 V, 124 days in total in the atmosphere
[9] = drain voltage 80 V, same TFT after 13 days in the atmosphere
[10] = drain voltage 100 V, left in the atmosphere 7 days

FC(F)(F)Oc1ccc(-c2ccc(-c3c4c(c(-c5ccc(-c6ccc(OC(F)(F)F)cc6)s5)c5nsnc35)N=S=N4)s2)cc1 [BBT-(1)]
formation of a thin film ([1]; 1,2-dichlorobenzene solution): confirmed
formation of a thin film ([1]; mesitylene solution): confirmed
field-effect mobility ([2]; drain voltage 50 V, initial): 5.1×10^−1 cm^2/Vs
field-effect mobility [2, 5]: 8.2×10^−1 cm^2/Vs
electrical properties of the organic TFT (n-type) [2]: had the properties of n-type semiconductor
field-effect mobility [2, 6]: 1.6 cm^2/Vs
field-effect mobility [2, 7]: 1.6 cm^2/Vs
field-effect mobility [2, 8]: 1.5 cm^2/Vs
field-effect mobility [2, 9]: 1.6 cm^2/Vs
field-effect mobility ([3]; drain voltage 50 V, initial): 4.1×10^−1 cm^2/Vs
field-effect mobility [3, 5]: 8.0×10^−1 cm^2/Vs
electrical properties of the organic TFT (n-type) [3]: had the properties of n-type semiconductor
field-effect mobility [3, 6]: 1.1 cm^2/Vs
field-effect mobility [3, 7]: 9.7×10^−1 cm^2/Vs
field-effect mobility [3, 8]: 9.7×10^−1 cm^2/Vs
field-effect mobility [3, 9]: 1.0 cm^2/Vs

FC(F)(F)Oc1cccc(-c2ccc(-c3c4c(c(-c5ccc(-c6cccc(OC(F)(F)F)c6)s5)c5nsnc35)N=S=N4)s2)c1 [BBT-(2)]
field-effect mobility [4]: 2.6×10^−2 cm^2/Vs
electrical properties of the organic TFT (n-type) [4]: had the properties of n-type semiconductor
electrical properties of the organic TFT (n-type) [2]: had the properties of n-type semiconductor
field-effect mobility ([2]; drain voltage 100 V, initial): 5.3×10^−1 cm^2/Vs
electrical properties of the organic TFT (n-type) [3]: had the properties of n-type semiconductor
field-effect mobility ([3]; drain voltage 100 V, initial): 5.6×10^−1 cm^2/Vs

CCCCCCCCCCC(F)(F)c1ccc(-c2ccc(-c3c4c(c(-c5ccc(-c6ccc(C(F)(F)CCCCCCCCCC)cc6)s5)c5nsnc35)N=S=N4)s2)cc1 [BBT-(5)]
field-effect mobility [4]: 1.0×10^−1 cm^2/Vs
electrical properties of the organic TFT (n-type) [4]: had the properties of n-type semiconductor

CC(F)(F)Oc1ccc(-c2ccc(-c3c4c(c(-c5ccc(-c6ccc(OC(C)(F)F)cc6)s5)c5nsnc35)N=S=N4)s2)cc1 [BBT-(6)]
electrical properties of the organic TFT (n-type) [2]: had the properties of n-type semiconductor
field-effect mobility ([2]; drain voltage 100 V, initial): 1.5 cm^2/Vs
field-effect mobility [2, 10]: 1.8 cm^2/Vs
electrical properties of the organic TFT (n-type) [3]: had the properties of n-type semiconductor
field-effect mobility ([3]; drain voltage 100 V, initial): 1.1 cm^2/Vs
field-effect mobility [3, 10]: 1.6 cm^2/Vs

FC(F)(F)c1ccc(-c2ccc(-c3c4c(c(-c5ccc(-c6ccc(C(F)(F)F)cc6)s5)c5nsnc35)N=S=N4)s2)cc1 [BBT-(11), reference compound]
formation of a thin film ([1]; 1,2-dichlorobenzene solution): not confirmed
formation of a thin film ([1]; mesitylene solution): not confirmed
field-effect mobility ([2]; drain voltage 50 V, initial): 4.0×10^−1 cm^2/Vs
field-effect mobility [2, 5]: 3.0×10^−1 cm^2/Vs
electrical properties of the organic TFT (n-type) [2]: had the properties of n-type semiconductor
field-effect mobility ([3]; drain voltage 50 V, initial): 4.0×10^−1 cm^2/Vs
field-effect mobility [3, 5]: 4.5×10^−1 cm^2/Vs
electrical properties of the organic TFT (n-type) [3]: had the properties of n-type semiconductor

Cc1ccc(-c2ccc(-c3c4c(c(-c5ccc(-c6ccc(C)cc6)s5)c5nsnc35)N=S=N4)s2)cc1 [BBT-(12), reference compound]
electrical properties of the organic TFT (n-type) [2]: had the properties of n-type semiconductor
field-effect mobility ([2]; drain voltage 80 V, initial): 4.9×10^−3 cm^2/Vs
electrical properties of the organic TFT (n-type) [3]: did not have the properties of n-type transistor

COc1ccc(-c2ccc(-c3c4c(c(-c5ccc(-c6ccc(OC)cc6)s5)c5nsnc35)N=S=N4)s2)cc1 [BBT-(13), reference compound]
electrical properties of the organic TFT (n-type) [2]: had the properties of n-type semiconductor
field-effect mobility ([2]; drain voltage 80 V, initial): 2.0×10^−4 cm^2/Vs
electrical properties of the organic TFT (n-type) [3]: had the properties of n-type semiconductor
field-effect mobility ([3]; drain voltage 80 V, initial): 2.0×10^−4 cm^2/Vs

CCCCCCCCCc1ccc(-c2ccc(-c3c4c(c(-c5ccc(-c6ccc(CCCCCCCCC)cc6)s5)c5nsnc35)N=S=N4)s2)cc1 [BBT-(14), reference compound]
electrical properties of the organic TFT (n-type) [4]: did not have the properties of n-type transistor
